Values from PubChem BioAssay AID1224830 (NIAID, 2016)

Aim: 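Host factors that control LPS-induced TNF expression in human macrophages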 (primary screen)
System: human THP-1 monocytic leukaemia cells, TNF dual-luciferase reporter clone, PMA-differentiated to macrophage-like cells
Knock-down reagent: siRNA pool against human genes, 50 nM
Time to read-out: LPS for 4 h, given about 3 days after siRNA transfection
Treatment: bacterial LPS (TLR4 ligand), 10 ng/ml
Read-out: 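Ratio of firefly to renilla light, scaled to the plate median and expressed as a robust z-score per replicate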
Reading the numbers: TNF reporter robust z-score: higher = stronger TNF reporter response to LPS
Rule for the call: 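Each well counts as active if its z-score is over 2.8 or under -1.5; controls are left without a call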
The deposit covers about 18,000 reagents; below is a part drawn at random. Over the whole deposit, about 2,900 (16%) got an active call. 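Calls are made per well; low scores hint the gene aids the LPS response, high scores that it dampens it.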 Unmarked entries are inactive. Repeated entries: four replicate wells of each siRNA pool.

ZNF354A (GeneID 6940)
- TNF reporter robust z-score: 0.93

ZNF354A (GeneID 6940)
- TNF reporter robust z-score: 0.85

ZNF354A (GeneID 6940)
- TNF reporter robust z-score: 1.22

ZNF354A (GeneID 6940)
- TNF reporter robust z-score: 1.3

CREB3 (GeneID 10488)
- TNF reporter robust z-score: -0.92

CREB3 (GeneID 10488)
- TNF reporter robust z-score: -0.44

CREB3 (GeneID 10488)
- TNF reporter robust z-score: -0.76

CREB3 (GeneID 10488)
- TNF reporter robust z-score: -0.73

TVP23C (GeneID 201158)
- TNF reporter robust z-score: -1.35

TVP23C (GeneID 201158)
- TNF reporter robust z-score: -1.27

TVP23C (GeneID 201158)
- TNF reporter robust z-score: -1.16

TVP23C (GeneID 201158)
- TNF reporter robust z-score: -1.28

ZNRD2 (GeneID 10534)
- TNF reporter robust z-score: 0.72

ZNRD2 (GeneID 10534)
- TNF reporter robust z-score: -0.56

ZNRD2 (GeneID 10534)
- TNF reporter robust z-score: 1.4

ZNRD2 (GeneID 10534)
- TNF reporter robust z-score: -0.08

C2orf68 (GeneID 388969)
- TNF reporter robust z-score: 5.83 (active)

C2orf68 (GeneID 388969)
- TNF reporter robust z-score: 3.99 (active)

C2orf68 (GeneID 388969)
- TNF reporter robust z-score: 1.1

C2orf68 (GeneID 388969)
- TNF reporter robust z-score: -0.4

RNPEP (GeneID 6051)
- TNF reporter robust z-score: -0.01

RNPEP (GeneID 6051)
- TNF reporter robust z-score: -1.04

RNPEP (GeneID 6051)
- TNF reporter robust z-score: 0.04

RNPEP (GeneID 6051)
- TNF reporter robust z-score: 0.01

ZNF692 (GeneID 55657)
- TNF reporter robust z-score: -0.55

ZNF692 (GeneID 55657)
- TNF reporter robust z-score: -0.07

ZNF692 (GeneID 55657)
- TNF reporter robust z-score: -0.17

WDR20 (GeneID 91833)
- TNF reporter robust z-score: -0.28

WDR20 (GeneID 91833)
- TNF reporter robust z-score: 0.28

WDR20 (GeneID 91833)
- TNF reporter robust z-score: -1.15

WDR20 (GeneID 91833)
- TNF reporter robust z-score: -0.75

CCDC191 (GeneID 57577)
- TNF reporter robust z-score: -0.47

CCDC191 (GeneID 57577)
- TNF reporter robust z-score: -0.39

CCDC191 (GeneID 57577)
- TNF reporter robust z-score: -0.07

CCDC191 (GeneID 57577)
- TNF reporter robust z-score: 0.47

Not a retest: 5 of the entries above.
RNPEP (GeneID 6051)
- TNF reporter robust z-score: 0.04

RNPEP (GeneID 6051)
- TNF reporter robust z-score: 0.01

ZNF692 (GeneID 55657)
- TNF reporter robust z-score: -0.55

ZNF692 (GeneID 55657)
- TNF reporter robust z-score: -0.07

ZNF692 (GeneID 55657)
- TNF reporter robust z-score: -0.17
